Experiment in all cases: cell proliferation assay
Holding throughout (type): cell-based

The subject of assay [1] is DU145 cells. Conditions: Homo sapiens, DU-145, 72 h, read-out: IC50 values proliferation DU145.
The subject of assay [2] is VCaP cells. Conditions: Homo sapiens, 168 h, read-out: IC50 values proliferation VCaP. The procedure: (§1) After 7 days, cell viability was measured using a CellTiter 96® AQueous One Solution Cell Proliferation Assay kit (Promega).
The test system of assay [3] is LNCaP cells. The conditions noted are these: Homo sapiens, 72 h, read-out: IC50 values proliferation LNCaP. The protocol:
as §1

For assay [4], the system named is HEK293 cells. The conditions noted are these: Homo sapiens, HEK293, 72 h, read-out: IC50 values proliferation HEK293.

Regarding `CNC(=O)c1ccc(N2C(=S)N(c3ccc(C#N)c(C(F)(F)F)c3)C(=O)C2(C)C)cc1F` [MDV3100, reference compound], the IC50 in assay [1] was over 50 µM; in assay [2], 11 µM; in assay [3] it was 25.8 µM; in assay [4], over 50 µM.

The values are drawn from paper PMC7993727, “Discovery of a novel AR/HDAC6 dual inhibitor for prostate cancer treatment” (Aging (Albany NY), 2021).
